Reference: the supplement of paper PMC6411743
± gives the standard deviation of the averaged measurements. The list shows a part of the results, in another mix than the full data.

Amino acid sequences for entries named in this document (tags omitted). A change or cut given only in a name is not applied to a line headed by its entry.
UniProt P23368: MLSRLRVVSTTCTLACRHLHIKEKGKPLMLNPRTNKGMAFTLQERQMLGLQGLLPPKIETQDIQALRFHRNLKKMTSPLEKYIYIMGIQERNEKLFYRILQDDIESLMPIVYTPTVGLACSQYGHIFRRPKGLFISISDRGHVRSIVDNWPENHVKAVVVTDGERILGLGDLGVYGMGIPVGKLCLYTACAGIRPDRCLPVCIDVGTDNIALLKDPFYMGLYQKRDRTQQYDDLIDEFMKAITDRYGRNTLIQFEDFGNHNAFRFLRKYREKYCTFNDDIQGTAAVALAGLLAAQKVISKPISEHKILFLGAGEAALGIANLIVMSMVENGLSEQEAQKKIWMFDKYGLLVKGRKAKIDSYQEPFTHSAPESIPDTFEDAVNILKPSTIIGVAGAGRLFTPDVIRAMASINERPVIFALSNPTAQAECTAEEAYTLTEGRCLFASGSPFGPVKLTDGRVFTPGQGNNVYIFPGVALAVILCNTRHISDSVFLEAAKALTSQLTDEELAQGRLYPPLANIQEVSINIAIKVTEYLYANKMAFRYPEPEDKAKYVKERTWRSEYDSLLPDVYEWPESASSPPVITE
UniProt P18858, whole entry: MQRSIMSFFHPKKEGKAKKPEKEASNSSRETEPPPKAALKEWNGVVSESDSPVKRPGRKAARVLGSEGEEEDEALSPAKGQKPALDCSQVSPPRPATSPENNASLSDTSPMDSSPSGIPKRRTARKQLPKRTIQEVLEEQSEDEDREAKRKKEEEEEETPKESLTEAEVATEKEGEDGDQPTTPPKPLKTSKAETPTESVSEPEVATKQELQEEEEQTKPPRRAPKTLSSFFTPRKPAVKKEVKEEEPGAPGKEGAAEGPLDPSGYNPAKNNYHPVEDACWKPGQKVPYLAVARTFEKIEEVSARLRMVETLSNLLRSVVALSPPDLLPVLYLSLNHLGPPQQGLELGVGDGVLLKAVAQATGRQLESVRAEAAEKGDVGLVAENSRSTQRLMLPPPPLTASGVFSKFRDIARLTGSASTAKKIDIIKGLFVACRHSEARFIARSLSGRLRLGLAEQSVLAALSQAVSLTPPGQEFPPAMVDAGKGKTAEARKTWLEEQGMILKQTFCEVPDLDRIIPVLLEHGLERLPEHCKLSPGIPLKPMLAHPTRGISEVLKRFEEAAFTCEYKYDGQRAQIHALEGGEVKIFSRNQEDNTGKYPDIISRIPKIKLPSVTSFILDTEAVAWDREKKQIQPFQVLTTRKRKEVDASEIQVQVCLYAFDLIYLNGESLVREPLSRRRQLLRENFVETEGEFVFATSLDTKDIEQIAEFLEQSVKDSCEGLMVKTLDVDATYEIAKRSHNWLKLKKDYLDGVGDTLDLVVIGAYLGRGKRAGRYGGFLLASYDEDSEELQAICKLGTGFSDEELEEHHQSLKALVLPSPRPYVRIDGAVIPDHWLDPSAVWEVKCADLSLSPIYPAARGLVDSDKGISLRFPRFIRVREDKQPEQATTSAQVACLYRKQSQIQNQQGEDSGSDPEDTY
UniProt P31939: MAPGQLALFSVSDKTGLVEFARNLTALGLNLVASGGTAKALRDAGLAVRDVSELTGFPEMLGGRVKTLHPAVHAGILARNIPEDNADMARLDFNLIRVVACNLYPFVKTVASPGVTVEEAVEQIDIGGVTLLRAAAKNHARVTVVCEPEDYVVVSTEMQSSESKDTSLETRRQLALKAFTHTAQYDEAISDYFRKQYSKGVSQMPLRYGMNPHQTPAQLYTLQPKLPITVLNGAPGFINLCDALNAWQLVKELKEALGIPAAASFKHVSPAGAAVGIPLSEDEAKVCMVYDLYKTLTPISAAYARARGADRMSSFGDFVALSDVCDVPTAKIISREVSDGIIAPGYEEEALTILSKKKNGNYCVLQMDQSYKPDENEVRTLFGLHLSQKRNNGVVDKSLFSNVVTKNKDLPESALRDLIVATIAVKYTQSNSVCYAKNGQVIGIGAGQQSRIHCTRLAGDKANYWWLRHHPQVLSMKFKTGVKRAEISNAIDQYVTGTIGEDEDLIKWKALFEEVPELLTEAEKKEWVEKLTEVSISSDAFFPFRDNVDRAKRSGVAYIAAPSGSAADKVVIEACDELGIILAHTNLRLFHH
UniProt P20042, whole entry: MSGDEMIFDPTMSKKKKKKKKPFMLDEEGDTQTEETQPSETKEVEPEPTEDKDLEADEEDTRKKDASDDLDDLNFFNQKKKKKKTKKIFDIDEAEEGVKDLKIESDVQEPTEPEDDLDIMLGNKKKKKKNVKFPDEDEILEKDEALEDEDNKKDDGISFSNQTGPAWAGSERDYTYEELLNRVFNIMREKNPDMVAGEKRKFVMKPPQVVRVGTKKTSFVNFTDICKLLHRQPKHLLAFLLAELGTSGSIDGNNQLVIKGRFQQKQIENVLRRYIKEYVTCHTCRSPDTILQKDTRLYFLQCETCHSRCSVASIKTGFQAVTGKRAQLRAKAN
UniProt P35580, whole entry: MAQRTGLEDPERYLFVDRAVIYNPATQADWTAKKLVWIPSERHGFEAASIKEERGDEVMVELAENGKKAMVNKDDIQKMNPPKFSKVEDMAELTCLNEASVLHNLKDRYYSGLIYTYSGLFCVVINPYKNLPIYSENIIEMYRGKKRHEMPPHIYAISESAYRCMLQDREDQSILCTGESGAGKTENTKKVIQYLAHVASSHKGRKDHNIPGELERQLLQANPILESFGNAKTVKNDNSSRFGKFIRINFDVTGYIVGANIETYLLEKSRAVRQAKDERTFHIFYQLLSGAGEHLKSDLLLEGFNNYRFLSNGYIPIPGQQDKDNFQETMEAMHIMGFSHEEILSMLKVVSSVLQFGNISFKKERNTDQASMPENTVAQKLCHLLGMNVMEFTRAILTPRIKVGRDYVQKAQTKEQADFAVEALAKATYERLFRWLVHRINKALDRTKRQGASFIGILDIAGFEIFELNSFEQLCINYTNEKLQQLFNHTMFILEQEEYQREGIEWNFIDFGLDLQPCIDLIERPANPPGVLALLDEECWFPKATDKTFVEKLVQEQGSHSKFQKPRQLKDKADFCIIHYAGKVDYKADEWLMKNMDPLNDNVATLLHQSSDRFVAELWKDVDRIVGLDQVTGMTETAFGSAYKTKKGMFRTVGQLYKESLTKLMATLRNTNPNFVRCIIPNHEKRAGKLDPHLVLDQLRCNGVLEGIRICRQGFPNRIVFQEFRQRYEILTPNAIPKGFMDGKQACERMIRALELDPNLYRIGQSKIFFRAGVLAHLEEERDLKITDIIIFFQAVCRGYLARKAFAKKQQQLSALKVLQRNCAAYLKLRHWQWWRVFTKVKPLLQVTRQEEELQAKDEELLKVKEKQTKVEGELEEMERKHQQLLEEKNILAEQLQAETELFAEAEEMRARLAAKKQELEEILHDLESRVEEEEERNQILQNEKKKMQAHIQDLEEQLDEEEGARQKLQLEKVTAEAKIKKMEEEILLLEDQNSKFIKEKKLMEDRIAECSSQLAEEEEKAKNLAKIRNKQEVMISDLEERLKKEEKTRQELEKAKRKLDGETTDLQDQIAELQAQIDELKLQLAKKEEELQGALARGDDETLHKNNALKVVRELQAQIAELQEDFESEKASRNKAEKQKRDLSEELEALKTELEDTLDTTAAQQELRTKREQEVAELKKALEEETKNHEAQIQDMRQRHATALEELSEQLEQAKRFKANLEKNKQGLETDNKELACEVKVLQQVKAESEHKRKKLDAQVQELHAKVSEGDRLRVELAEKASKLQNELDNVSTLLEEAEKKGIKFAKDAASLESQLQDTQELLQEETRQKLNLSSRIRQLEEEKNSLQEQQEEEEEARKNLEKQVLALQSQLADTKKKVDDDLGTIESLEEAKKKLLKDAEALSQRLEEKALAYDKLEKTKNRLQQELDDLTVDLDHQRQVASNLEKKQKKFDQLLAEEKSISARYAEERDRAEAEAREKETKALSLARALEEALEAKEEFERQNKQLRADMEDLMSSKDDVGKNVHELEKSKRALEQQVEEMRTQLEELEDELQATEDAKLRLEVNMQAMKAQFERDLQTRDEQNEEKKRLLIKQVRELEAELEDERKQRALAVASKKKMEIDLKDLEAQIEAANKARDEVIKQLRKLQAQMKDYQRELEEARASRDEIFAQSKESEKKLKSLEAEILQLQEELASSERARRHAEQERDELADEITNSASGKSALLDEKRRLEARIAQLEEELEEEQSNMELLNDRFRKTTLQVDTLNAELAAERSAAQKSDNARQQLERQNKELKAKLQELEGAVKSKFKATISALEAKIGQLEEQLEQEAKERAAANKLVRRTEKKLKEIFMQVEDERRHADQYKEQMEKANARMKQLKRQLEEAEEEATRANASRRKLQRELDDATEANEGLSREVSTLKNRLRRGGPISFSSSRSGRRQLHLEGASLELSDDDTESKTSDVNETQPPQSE
UniProt P35241, whole entry: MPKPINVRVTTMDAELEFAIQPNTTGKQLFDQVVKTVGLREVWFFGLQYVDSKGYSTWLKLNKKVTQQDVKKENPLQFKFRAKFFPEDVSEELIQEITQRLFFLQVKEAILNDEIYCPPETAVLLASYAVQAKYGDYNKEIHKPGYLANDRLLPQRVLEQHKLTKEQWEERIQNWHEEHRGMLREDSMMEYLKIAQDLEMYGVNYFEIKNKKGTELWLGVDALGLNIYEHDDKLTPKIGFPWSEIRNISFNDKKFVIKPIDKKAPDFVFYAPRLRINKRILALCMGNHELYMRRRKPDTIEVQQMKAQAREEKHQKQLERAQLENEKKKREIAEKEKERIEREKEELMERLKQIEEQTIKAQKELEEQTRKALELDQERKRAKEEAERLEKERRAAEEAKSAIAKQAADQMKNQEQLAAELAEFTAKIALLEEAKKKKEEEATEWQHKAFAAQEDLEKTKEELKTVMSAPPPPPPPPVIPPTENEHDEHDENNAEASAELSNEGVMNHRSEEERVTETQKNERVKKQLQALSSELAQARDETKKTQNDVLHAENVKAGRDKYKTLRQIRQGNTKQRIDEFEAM
UniProt P38646: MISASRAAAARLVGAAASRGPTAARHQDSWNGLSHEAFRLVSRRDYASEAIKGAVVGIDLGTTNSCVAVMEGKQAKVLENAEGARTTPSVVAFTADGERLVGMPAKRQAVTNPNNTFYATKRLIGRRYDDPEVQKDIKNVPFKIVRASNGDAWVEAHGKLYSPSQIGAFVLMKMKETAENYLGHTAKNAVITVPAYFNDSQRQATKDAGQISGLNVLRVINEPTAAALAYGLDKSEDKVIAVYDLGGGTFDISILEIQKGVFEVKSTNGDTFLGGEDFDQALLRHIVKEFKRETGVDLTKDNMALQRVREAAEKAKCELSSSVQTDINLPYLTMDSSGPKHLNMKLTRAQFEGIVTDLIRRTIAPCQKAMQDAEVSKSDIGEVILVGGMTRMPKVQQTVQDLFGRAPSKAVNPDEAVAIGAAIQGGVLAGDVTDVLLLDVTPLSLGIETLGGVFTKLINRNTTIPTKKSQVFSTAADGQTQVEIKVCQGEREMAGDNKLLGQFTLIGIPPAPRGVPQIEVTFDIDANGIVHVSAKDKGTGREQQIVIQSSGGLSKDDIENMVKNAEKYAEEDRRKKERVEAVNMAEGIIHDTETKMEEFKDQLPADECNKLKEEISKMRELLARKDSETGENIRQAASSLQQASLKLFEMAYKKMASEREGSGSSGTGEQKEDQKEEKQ
UniProt P36871: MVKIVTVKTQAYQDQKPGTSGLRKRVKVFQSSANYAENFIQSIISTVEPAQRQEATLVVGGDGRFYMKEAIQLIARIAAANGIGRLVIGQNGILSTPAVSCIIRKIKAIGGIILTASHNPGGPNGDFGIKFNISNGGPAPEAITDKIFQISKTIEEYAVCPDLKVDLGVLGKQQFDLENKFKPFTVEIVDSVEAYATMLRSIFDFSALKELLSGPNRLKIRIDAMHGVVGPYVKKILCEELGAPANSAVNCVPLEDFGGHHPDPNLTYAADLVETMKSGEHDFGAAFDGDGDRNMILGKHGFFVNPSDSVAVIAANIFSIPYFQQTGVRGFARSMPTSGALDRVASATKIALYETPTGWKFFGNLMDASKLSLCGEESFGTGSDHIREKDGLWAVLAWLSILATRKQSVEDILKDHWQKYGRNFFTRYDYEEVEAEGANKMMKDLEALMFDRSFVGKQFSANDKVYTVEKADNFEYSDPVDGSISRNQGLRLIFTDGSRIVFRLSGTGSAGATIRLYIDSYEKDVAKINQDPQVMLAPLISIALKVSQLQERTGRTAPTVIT
UniProt P20618: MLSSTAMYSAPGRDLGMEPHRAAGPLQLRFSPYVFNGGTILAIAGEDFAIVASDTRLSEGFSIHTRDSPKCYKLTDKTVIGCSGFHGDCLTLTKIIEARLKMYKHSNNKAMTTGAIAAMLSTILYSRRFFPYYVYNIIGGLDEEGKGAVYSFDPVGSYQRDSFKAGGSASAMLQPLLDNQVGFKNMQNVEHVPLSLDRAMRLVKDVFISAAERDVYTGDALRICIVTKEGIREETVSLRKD

Compound: Nc1ncnc2c1ncn2[C@@H]1O[C@H](COP(=O)(O)OP(=O)(O)NP(=O)(O)O)[C@@H](O)[C@H]1O [adenylyl imidodiphosphate]
Assay: NP40-soluble protein abundance relative to vehicle (solubility fold change) (ratio); higher = more soluble protein in presence of AMP-PNP
Outline: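 Jurkat crude lysate prepared with a Dounce homogeniser was treated at eight concentrations spanning 0.1 to 10 mM, 10 min at room temperature then 3 min at 37 °C. Solubilisation with 0.8% NP40 and benzonase and ultracentrifugation preceded TMT labelling of the supernatant for LC-MS/MS. Fold change against the detergent-processed vehicle was determined per replicate from vsn-normalised intensities, across three independent experiments.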

Target | NP40-soluble protein abundance (concentration: 1mM) | NP40-soluble protein abundance (concentration: 2mM) | NP40-soluble protein abundance (concentration: 4mM) | NP40-soluble protein abundance (concentration: 6mM) | NP40-soluble protein abundance (concentration: 8mM) | NP40-soluble protein abundance (concentration: 10mM)
ME2 (UniProt P23368) | 0.932 ± 0.029 | 0.83 ± 0.14 | 0.928 ± 0.044 | 0.918 ± 0.031 | 0.962 ± 0.024 | 0.876 ± 0.035
UniProt P18858 and related entries | 1.04 ± 0.018 | 1.04 ± 0.042 | 1 ± 0.032 | 0.979 ± 0.016 | 0.969 ± 0.012 | 0.966 ± 0.02
ATIC (UniProt P31939) | 1.01 ± 0.015 | 0.99 ± 0.057 | 1.016 ± 0.0081 | 1.01 ± 0.034 | 1.01 ± 0.026 | 1.03 ± 0.05
UniProt P29144 and related entries | 0.95 ± 0.11 | 0.889 ± 0.12 | 0.917 ± 0.12 | 0.889 ± 0.11 | 0.925 ± 0.12 | 0.891 ± 0.14
EIF2S2 (UniProt P20042) | 1.046 ± 0.0015 | 1.1 ± 0.039 | 1.09 ± 0.011 | 1.16 ± 0.029 | 1.14 ± 0.05 | 1.19 ± 0.014
MYH10 (UniProt P35580) | 1.16 ± 0.11 | 1.24 ± 0.11 | 1.18 ± 0.15 | 1.17 ± 0.15 | 1.12 ± 0.15 | 1.17 ± 0.19
RDX (UniProt P35241) | 1.06 ± 0.045 | 1.08 ± 0.024 | 1.01 ± 0.032 | 1.01 ± 0.064 | 0.968 ± 0.044 | 1 ± 0.056
RPL4 (UniProt P36578) | 0.977 ± 0.13 | 0.988 ± 0.084 | 0.929 ± 0.17 | 0.892 ± 0.17 | 0.751 ± 0.067 | 0.982 ± 0.29
HSPA9 (UniProt P38646) | 1.01 ± 0.013 | 1.04 ± 0.029 | 0.934 ± 0.081 | 1.017 ± 0.01 | 0.959 ± 0.024 | 0.969 ± 0.077
UniProt P19793-2 | 1.02 ± 0.029 | 1 ± 0.035 | 0.9871 ± 0.0057 | 0.986 ± 0.058 | 0.9769 ± 0.0031 | 0.9745 ± 0.0086
MYH9 (UniProt P35579) | 1.06 ± 0.049 | 1.09 ± 0.04 | 1.04 ± 0.061 | 1.03 ± 0.063 | 1 ± 0.051 | 1.03 ± 0.077
PGM1 (UniProt P36871) | 0.978 ± 0.042 | 0.914 ± 0.04 | 0.939 ± 0.025 | 0.974 ± 0.04 | 0.969 ± 0.035 | 0.935 ± 0.014
GLDC (UniProt P23378) | 0.991 ± 0.042 | 1.02 ± 0.017 | 0.974 ± 0.017 | 0.972 ± 0.043 | 0.974 ± 0.071 | 0.969 ± 0.062
PSMB1 (UniProt P20618) | 0.959 ± 0.032 | 0.934 ± 0.059 | 0.927 ± 0.079 | 0.906 ± 0.094 | 0.904 ± 0.086 | 0.873 ± 0.1
RPS3 (UniProt P23396) | 0.937 ± 0.036 | 0.867 ± 0.032 | 0.904 ± 0.099 | 0.878 ± 0.014 | 0.857 ± 0.057 | 0.885 ± 0.11

A run of entries from further up:
Target | NP40-soluble protein abundance (concentration: 1mM) | NP40-soluble protein abundance (concentration: 2mM) | NP40-soluble protein abundance (concentration: 4mM) | NP40-soluble protein abundance (concentration: 6mM) | NP40-soluble protein abundance (concentration: 8mM) | NP40-soluble protein abundance (concentration: 10mM)
HSPA9 (UniProt P38646) | 1.01 ± 0.013 | 1.04 ± 0.029 | 0.934 ± 0.081 | 1.017 ± 0.01 | 0.959 ± 0.024 | 0.969 ± 0.077
UniProt P19793-2 | 1.02 ± 0.029 | 1 ± 0.035 | 0.9871 ± 0.0057 | 0.986 ± 0.058 | 0.9769 ± 0.0031 | 0.9745 ± 0.0086
